Laboratory results published in patent publication US9765378B2, “Preparation method of new recombinant antibacterial polypeptide medicine” (priority 2011, dated 2017).
Some of these results come from one statement about several compounds together.

System: Staphylococcus (Staphylococcus aureus, Staphylococcus epidermidis, Staphylococcus saprophyticus, and Staphylococcus sciuri)
Assay: in vitro inhibition and bactericidal effect on bovine mastitis isolated pathogenic bacteria: Staphylococcus
Assay type: cell-based
Details: control antibiotics
Protocol: (5) the recombinant antibacterial polypeptide medicine was tested for the in vitro inhibition and bactericidal effect on bovine mastitis isolated pathogenic bacteria.

| Molecule | inhibition and bactericidal effect of controls (MIC50/MBC50 not specified) |
| --- | --- |
| gentamicin | over 8 ug/ml |
| CC1(C)S[C@@H]2[C@H](NC(=O)[C@H](N)c3ccccc3)C(=O)N2[C@H]1C(=O)O [ampicillin] | over 8 ug/ml |
| CCC[C@@H]1C[C@@H](C(=O)N[C@@H]([C@H]2O[C@H](SC)[C@H](O)[C@@H](O)[C@H]2O)[C@@H](C)O)N(C)C1 [lincomycin] | over 8 ug/ml |
